Results on four molecules are retold here after paper PMC9371934.

By UniProt entry, the sequences of proteins in these tests, tags left out.
UniProt P40938: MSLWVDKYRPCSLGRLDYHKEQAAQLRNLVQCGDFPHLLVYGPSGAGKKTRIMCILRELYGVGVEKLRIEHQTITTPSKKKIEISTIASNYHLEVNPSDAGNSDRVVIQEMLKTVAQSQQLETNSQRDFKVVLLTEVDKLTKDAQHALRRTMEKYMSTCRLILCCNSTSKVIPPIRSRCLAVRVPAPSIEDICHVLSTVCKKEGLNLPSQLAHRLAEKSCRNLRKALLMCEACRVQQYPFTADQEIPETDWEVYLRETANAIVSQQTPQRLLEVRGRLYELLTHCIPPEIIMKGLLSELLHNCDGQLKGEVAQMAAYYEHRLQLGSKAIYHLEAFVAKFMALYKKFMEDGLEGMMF
UniProt P35250: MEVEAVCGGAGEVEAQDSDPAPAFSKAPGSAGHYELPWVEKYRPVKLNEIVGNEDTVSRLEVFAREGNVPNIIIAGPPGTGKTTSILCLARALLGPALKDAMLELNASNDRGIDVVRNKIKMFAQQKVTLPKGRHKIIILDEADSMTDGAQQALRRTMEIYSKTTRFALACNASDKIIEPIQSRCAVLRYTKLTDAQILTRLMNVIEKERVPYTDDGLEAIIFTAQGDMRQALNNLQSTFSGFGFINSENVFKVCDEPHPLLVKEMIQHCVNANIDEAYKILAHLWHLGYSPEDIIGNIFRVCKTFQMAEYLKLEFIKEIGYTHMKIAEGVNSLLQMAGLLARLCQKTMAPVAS

What all share (assay): cryo-EM structure; co-expressed, purified RAD17–RFC–9–1–1 (RAD17 fused to the C-terminus of RAD1) with excess ATPγS and a hairpin DNA (24 bp dsDNA, 24 nt 3′ overhang); 600 nM sample; 10 mM HEPES pH 7.5, 150 mM NaCl, 0.5 mM TCEP; map at 3.59 Å; both purified
One assay has as its target T1, RAD9–HIS (human) (UniProt Q99638).
T1 sequence: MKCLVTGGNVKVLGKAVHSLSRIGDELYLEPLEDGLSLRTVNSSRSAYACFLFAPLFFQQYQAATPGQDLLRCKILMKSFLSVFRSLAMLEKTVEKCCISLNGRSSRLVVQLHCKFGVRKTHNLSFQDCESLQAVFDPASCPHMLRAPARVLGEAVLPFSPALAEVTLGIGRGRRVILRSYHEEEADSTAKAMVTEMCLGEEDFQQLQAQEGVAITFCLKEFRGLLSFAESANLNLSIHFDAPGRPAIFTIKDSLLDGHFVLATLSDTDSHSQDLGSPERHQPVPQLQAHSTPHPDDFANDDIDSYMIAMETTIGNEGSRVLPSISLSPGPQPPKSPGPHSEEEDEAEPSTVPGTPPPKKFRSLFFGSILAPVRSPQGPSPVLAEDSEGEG

The target in a further assay is RFC3 (human) (UniProt P40938).
Another assay addresses RFC2 (human) (UniProt P35250).
In a further assay the target is T2, HUS1 (human) (UniProt O60921).
T2 sequence: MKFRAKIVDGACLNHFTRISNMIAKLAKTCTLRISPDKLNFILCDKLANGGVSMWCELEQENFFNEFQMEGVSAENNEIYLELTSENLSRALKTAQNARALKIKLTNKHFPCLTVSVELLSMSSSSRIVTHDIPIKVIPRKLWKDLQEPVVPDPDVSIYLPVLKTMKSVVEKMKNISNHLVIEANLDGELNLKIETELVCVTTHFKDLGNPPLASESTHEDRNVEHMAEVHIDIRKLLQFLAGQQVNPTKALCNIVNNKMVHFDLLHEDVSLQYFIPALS

Assay [1] concerns the target T3, RAD1 (N-terminal half of the fusion chain RAD1–STREP–RAD17–HIS) (human) (UniProt O60671).
T3 sequence: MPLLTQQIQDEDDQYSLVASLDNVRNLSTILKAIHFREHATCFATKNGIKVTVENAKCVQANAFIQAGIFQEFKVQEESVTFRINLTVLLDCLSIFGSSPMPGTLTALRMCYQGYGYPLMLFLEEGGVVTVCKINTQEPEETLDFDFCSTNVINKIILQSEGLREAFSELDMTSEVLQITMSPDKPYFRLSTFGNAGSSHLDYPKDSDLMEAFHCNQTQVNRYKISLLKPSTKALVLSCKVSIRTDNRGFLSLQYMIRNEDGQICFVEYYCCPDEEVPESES

These are yes or no findings as the source states them, for the method shown. Some entries that bind do so weakly or less than the wild type. Tags and fused reporters may be left off the sequences shown.

B1: HUS1 (protein, UniProt O60921 1-280)
chain: MKFRAKIVDGACLNHFTRISNMIAKLAKTCTLRISPDKLNFILCDKLANGGVSMWCELEQENFFNEFQMEGVSAENNEIYLELTSENLSRALKTAQNARALKIKLTNKHFPCLTVSVELLSMSSSSRIVTHDIPIKVIPRKLWKDLQEPVVPDPDVSIYLPVLKTMKSVVEKMKNISNHLVIEANLDGELNLKIETELVCVTTHFKDLGNPPLASESTHEDRNVEHMAEVHIDIRKLLQFLAGQQVNPTKALCNIVNNKMVHFDLLHEDVSLQYFIPALS
As for B1, the binding result in the assay with RAD9–HIS (human) is “binds”.

B2: RAD17 (C-terminal half of the fusion chain RAD1–STREP–RAD17–HIS) (protein, UniProt O75943 1-681)
chain: MSKTFLRPKVSSTKVTDWVDPSFDDFLECSGVSTITATSLGVNNSSHRRKNGPSTLESSRFPARKRGNLSSLEQIYGLENSKEYLSENEPWVDKYKPETQHELAVHKKKIEEVETWLKAQVLERQPKQGGSILLITGPPGCGKTTTLKILSKEHGIQVQEWINPVLPDFQKDDFKGMFNTESSFHMFPYQSQIAVFKEFLLRATKYNKLQMLGDDLRTDKKIILVEDLPNQFYRDSHTLHEVLRKYVRIGRCPLIFIISDSLSGDNNQRLLFPKEIQEECSISNISFNPVAPTIMMKFLNRIVTIEANKNGGKITVPDKTSLELLCQGCSGDIRSAINSLQFSSSKGENNLRPRKKGMSLKSDAVLSKSKRRKKPDRVFENQEVQAIGGKDVSLFLFRALGKILYCKRASLTELDSPRLPSHLSEYERDTLLVEPEEVVEMSHMPGDLFNLYLHQNYIDFFMEIDDIVRASEFLSFADILSGDWNTRSLLREYSTSIATRGVMHSNKARGYAHCQGGGSSFRPLHKPQWFLINKKYRENCLAAKALFPDFCLPALCLQTQLLPYLALLTIPMRNQAQISFIQDIGRLPLKRHFGRLKMEALTDREHGMIDPDSGDEAQLNGGHSAEESLGEPTQATVPETWSLPLSQNSASELPASQPQPFSAQGDMEENIIIEDYESDGT
Consider B2, for which the binding entry in the assay with RFC3 (human) and in the assay with RFC2 (human) was “binds” each time.

B3: RAD1 (N-terminal half of the fusion chain RAD1–STREP–RAD17–HIS) (protein, UniProt O60671 1-282)
chain: MPLLTQQIQDEDDQYSLVASLDNVRNLSTILKAIHFREHATCFATKNGIKVTVENAKCVQANAFIQAGIFQEFKVQEESVTFRINLTVLLDCLSIFGSSPMPGTLTALRMCYQGYGYPLMLFLEEGGVVTVCKINTQEPEETLDFDFCSTNVINKIILQSEGLREAFSELDMTSEVLQITMSPDKPYFRLSTFGNAGSSHLDYPKDSDLMEAFHCNQTQVNRYKISLLKPSTKALVLSCKVSIRTDNRGFLSLQYMIRNEDGQICFVEYYCCPDEEVPESES
Turning to B3, the binding entry in the assay with HUS1 (human) is “binds”.

B4: RAD9–HIS (protein, UniProt Q99638 1-391)
chain: MKCLVTGGNVKVLGKAVHSLSRIGDELYLEPLEDGLSLRTVNSSRSAYACFLFAPLFFQQYQAATPGQDLLRCKILMKSFLSVFRSLAMLEKTVEKCCISLNGRSSRLVVQLHCKFGVRKTHNLSFQDCESLQAVFDPASCPHMLRAPARVLGEAVLPFSPALAEVTLGIGRGRRVILRSYHEEEADSTAKAMVTEMCLGEEDFQQLQAQEGVAITFCLKEFRGLLSFAESANLNLSIHFDAPGRPAIFTIKDSLLDGHFVLATLSDTDSHSQDLGSPERHQPVPQLQAHSTPHPDDFANDDIDSYMIAMETTIGNEGSRVLPSISLSPGPQPPKSPGPHSEEEDEAEPSTVPGTPPPKKFRSLFFGSILAPVRSPQGPSPVLAEDSEGEG
For B4, in assay [1], the binding entry was “binds”.
